Results are given in words; binding and its absence hold for the method and conditions named. In cells and extracts the contact can be indirect. Here binding means that the protein was enriched with, or labelled near, the bait; the list need not be complete.
Legend:
[1] = biological target: Enolase 1 (ENO1) (human (endogenous in MDA-MB-231)) (UniProt P06733); assay: affinity purification with mass spectrometry; MDA-MB-231 protein samples immunoprecipitated with ENO1 and MSN; global proteomics, at least 2 MS/MS counts with one or more unique peptides
[2] = biological target: Moesin (MSN) (human (endogenous in MDA-MB-231)) (UniProt P26038); assay: as above

The chains behind the UniProt entries cited, without tags or fusion partners.
UniProt P06733: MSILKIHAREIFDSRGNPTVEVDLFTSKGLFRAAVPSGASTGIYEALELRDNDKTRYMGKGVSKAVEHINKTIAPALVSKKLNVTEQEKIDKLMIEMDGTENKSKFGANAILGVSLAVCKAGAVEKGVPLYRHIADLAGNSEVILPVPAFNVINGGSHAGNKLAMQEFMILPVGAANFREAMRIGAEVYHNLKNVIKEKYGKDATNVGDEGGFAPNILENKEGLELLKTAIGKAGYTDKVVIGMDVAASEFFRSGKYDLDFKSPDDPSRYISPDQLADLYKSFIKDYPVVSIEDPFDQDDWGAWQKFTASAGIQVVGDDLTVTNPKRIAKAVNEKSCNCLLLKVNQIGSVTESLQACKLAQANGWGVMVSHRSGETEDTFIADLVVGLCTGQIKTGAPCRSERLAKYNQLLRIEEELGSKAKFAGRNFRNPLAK
UniProt P26038: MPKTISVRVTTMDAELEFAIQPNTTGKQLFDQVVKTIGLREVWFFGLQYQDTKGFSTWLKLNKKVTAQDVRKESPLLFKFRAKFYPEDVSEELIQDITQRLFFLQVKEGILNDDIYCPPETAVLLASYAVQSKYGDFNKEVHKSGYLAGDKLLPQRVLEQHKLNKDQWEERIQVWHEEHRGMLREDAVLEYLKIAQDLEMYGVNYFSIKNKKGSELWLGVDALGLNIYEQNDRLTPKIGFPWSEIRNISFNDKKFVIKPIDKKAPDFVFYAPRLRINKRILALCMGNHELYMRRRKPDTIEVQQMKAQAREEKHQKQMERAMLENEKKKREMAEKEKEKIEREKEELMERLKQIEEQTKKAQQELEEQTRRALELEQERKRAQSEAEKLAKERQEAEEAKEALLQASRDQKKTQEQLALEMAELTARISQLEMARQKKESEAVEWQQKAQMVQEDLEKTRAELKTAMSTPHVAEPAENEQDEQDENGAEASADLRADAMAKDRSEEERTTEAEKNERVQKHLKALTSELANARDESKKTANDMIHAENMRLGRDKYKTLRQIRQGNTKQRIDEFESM

B1: Metadherin (Mtdh) (protein, UniProt Q86UE4 1-582)
chain: MAARSWQDELAQQAEEGSARLREMLSVGLGFLRTELGLDLGLEPKRYPGWVILVGTGALGLLLLFLLGYGWAAACAGARKKRRSPPRKREEAAAVPAAAPDDLALLKNLRSEEQKKKNRKKLSEKPKPNGRTVEVAEGEAVRTPQSVTAKQPPEIDKKNEKSKKNKKKSKSDAKAVQNSSRHDGKEVDEGAWETKISHREKRQQRKRDKVLTDSGSLDSTIPGIENTITVTTEQLTTASFPVGSKKNKGDSHLNVQVSNFKSGKGDSTLQVSSGLNENLTVNGGGWNEKSVKLSSQISAGEEKWNSVSPASAGKRKTEPSAWSQDTGDANTNGKDWGRSWSDRSIFSGIGSTAEPVSQSTTSDYQWDVSRNQPYIDDEWSGLNGLSSADPNSDWNAPAEEWGNWVDEERASLLKSQEPIPDDQKVSDDDKEKGEGALPTGKSKKKKKKKKKQGEDNSTAQDTEELEKEIREDLPVNTSKTRPKQEKAFSLKTISTSDPAEVLVKNSQPIKTLPPATSTEPSVILSKSDSDKSSSQVPPILQETDKSKSNTKQNSVPPSQTKSETSWESPKQIKKKKKARRET
- binding [1]: binds
- binding [2]: binds

— publication PMC10008730
